Measurements reported in PubChem BioAssay AID1671195 (Yale University, 2021).
Here is an unselected part of about 22,000 reagents tested. About 1,510 of all reagents (6.9%) count as active. 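Active includes knockdowns raising or lowering LDL uptake; positive z-scores mean more uptake, negative mean less.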 Reagent sequences are not shown.

Purpose: 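Knockdowns that increase or decrease uptake of fluorescent LDL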 (primary screen)
Cells: human Huh7 hepatoma cells
Reagent: siRNA pool against human genes, 18 nM
Timing: about 2 to 2.5 days of knockdown, then 8 h LDL uptake
Conditions: DiI-labelled LDL at 30 µg/ml for 8 h, in lipoprotein-deficient serum medium
Read-out: 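Per-cell DiI-LDL intensity by automated imaging; well means scaled to the plate median and given as a robust z-score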
Direction: robust z-score: higher = more LDL uptake after knockdown
Active means: 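Active when two or more replicates show a robust z-score above 2 or below -2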

target,"robust z-score, replicate 1","robust z-score, replicate 2","robust z-score, replicate 3",Call
PTPRU,0.193,0.152,0.432,inactive
KCNA6,0.0136,0.199,-0.264,inactive
SLC25A26,1.59,1.99,2.94,active
CCDC90B,1.84,1.83,1.4,inactive
RABEP1,2.01,0.0435,0.107,inactive
DMPK,1.27,-0.134,-0.228,inactive
DCC,0.874,1.18,0.95,inactive
LINC00907,-1.18,-1.04,-1.4,inactive
SLC11A1,-0.504,-0.19,-0.427,inactive
SCLY,-0.337,-0.206,-0.0622,inactive
TMEM40,0.777,1.95,0.88,inactive
TOP1,0.331,0.535,0.479,inactive
POTEE,-0.903,-1.83,-1.36,inactive
SCML1,-1.26,-1.55,-1.62,inactive
CKM,1.33,0.895,2.45,inactive
COL9A3,-1.83,-1.91,-1.78,inactive
DRD5,-0.346,1.51,-0.804,inactive
DUBR,0.55,0.841,1.98,inactive
ZNF383,-0.378,-0.489,-0.837,inactive
SLC35F1,-0.947,-0.219,-0.464,inactive
SPIN3,-1.07,-0.934,-0.896,inactive
LINC00997,0.0907,0.476,0.133,inactive
ZBTB11,-0.613,-0.614,-0.37,inactive
GPBP1L1,-0.876,-1.64,-1.35,inactive
AK3,1.23,1.53,0.129,inactive
XG,0.357,2.37,1.4,inactive
LOC388397 (retired record),0.448,1.27,0.548,inactive
HTRA3,0.441,2.58,1.39,inactive
SHANK1,0.446,-1.52,0.518,inactive
FAM170A,4.45,4.33,4.59,active
LOC441137 (retired record),-0.3,-0.0733,-0.299,inactive
NDRG4,3.88,4.15,3.31,active
EAPP,-0.275,-1.7,-0.559,inactive
ZNF554,-0.723,-1.02,-0.805,inactive
LOC388069 (retired record),1.15,0.859,0.593,inactive
LOC390377 (retired record),-0.107,-0.259,-0.488,inactive
NMRAL2P,-0.919,-0.879,-1.15,inactive
PCSK9,2.51,3.96,3.57,active
LOC284964 (retired record),1.6,1.15,0.782,inactive
SIGLEC7,0.637,1.06,1.31,inactive
IL22RA1,-0.185,-0.407,-0.397,inactive
LYPLA2,-1.02,-0.795,-0.405,inactive
CD164L2,-0.236,0.335,0.437,inactive
SEMA3E,0.0219,-0.214,-1.25,inactive
OR4A5,1.52,0.893,1.72,inactive
PARD6G,-1.12,-2.14,-1.47,inactive
UBE2NL,2.32,2.77,2.24,active
ST8SIA3,1.94,1.52,2.07,inactive
RTN4R,1.2,-0.104,-0.285,inactive
PMP2,-1.18,-0.115,-0.865,inactive
WNT9B,-0.377,-0.0807,-1.17,inactive
ROBO4,0.67,-0.602,-0.465,inactive
NBPF2P,0.603,-0.244,0.899,inactive
RPS15AP17,-0.0748,0.172,-0.0855,inactive
UROS,0.718,0.697,0.931,inactive
XKR9,-0.737,-0.644,-0.63,inactive
KCNN1,-0.768,-0.587,-0.606,inactive
CRYZ,0.765,0.257,1.18,inactive
CDK12,-1.24,-1.2,-1.13,inactive
BTBD19,1.05,-0.0597,-0.105,inactive
MOGAT2,0.455,0.273,0.174,inactive
CCR9,0.0626,0.131,-0.313,inactive
LFNG,-0.684,-0.795,0.00234,inactive
RUNDC1,-0.0011,1.21,-0.308,inactive
LINC01483,0.337,0.207,0.502,inactive
RGS5,0.616,1.3,0.989,inactive
DCP2,-0.194,0.434,1.55,inactive
BARX1,0.537,-0.639,-0.631,inactive
LINC00635,-0.972,-0.908,-1.23,inactive
MLANA,-0.0493,0.647,-1.16,inactive
TRAM2,-0.74,-1.87,-2.27,active
LINC02483,1.82,2.18,1.85,inactive
DNAAF10,0.377,0.689,0.558,inactive
DUS2,-0.444,-0.541,-0.537,inactive
RCL1,0.225,0.251,-0.125,inactive
GOLM1,0.45,0.361,0.345,inactive
TMEM225,-0.82,-0.909,-0.764,inactive
CRYGD,-0.433,0.225,0.323,inactive
NPL,1.68,2.32,1.78,inactive
MUC5B,1.28,1.8,1.15,inactive
GRK4,-1.35,-1.53,-1.62,inactive
KRT10-AS1,-1.31,-0.982,-1.25,inactive
RABL6,-1.39,0.744,0.225,inactive
RPL10L,0.029,0.45,-0.224,inactive
DYNLL1P3,-1.63,-1.57,-1.37,inactive
CRYGS,-0.277,0.502,0.569,inactive
MEIOSIN,-0.48,-0.374,-0.22,inactive
